Results: patent publication US20190137501A1
Results are given in words; binding and its absence hold for the method and conditions named. Some entries that bind do so weakly or less than the wild type.

Chains of the proteins cited; added tags and fusions are not shown. Lines headed by an entry give the natural chain unless they say otherwise; changes in a name come on top. A line that says so, or that is headed by a name, gives the form on record, which may keep a tag or linker.
Mena (Q8N8S7, form named): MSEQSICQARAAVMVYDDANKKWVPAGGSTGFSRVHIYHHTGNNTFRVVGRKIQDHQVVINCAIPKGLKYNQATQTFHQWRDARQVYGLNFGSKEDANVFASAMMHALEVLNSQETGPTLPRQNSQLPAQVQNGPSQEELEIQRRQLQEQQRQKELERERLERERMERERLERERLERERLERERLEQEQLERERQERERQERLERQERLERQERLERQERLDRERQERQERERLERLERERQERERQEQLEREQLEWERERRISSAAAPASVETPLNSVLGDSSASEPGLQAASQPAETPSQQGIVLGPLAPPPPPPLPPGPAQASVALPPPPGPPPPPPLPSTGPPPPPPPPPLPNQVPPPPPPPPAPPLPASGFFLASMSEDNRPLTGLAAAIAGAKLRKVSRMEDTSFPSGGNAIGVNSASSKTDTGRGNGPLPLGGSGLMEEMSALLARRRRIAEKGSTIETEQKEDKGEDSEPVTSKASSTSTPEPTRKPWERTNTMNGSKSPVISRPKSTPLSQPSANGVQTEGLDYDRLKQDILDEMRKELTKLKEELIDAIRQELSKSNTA

Tests used:
[1] = target: epidermal growth factor receptor (EGFR) (Homo sapiens (Human)) (UniProt P00533); test: summary of PLA
[2] = target: epidermal growth factor receptor (EGFR) (Homo sapiens (Human)) (UniProt P00533); test: PLA in MDA-MB231 cells; shows proximity within 40 nm
[3] = target: epidermal growth factor receptor (EGFR) (Homo sapiens (Human)) (UniProt P00533); test: PLA in serum-starved or 0.25 nM EGF-stimulated MDA-MB231 cells

binding [1]: binds | binding [2]: binds | binding [3]: binds
Substance: Mena (from UniProt Q8N8S7 1-570)
